Values of other authors, collected in patent US20070225544A1, “APPARATUSES AND TECHNIQUES FOR BIOACTIVE DRUG DELIVERY IN THE PROSTATE GLAND” (priority 2006, published 2007).
For at least one compound, name, drawing or mass did not settle the structure.

Conditions: for Duration: relative duration of action of injectable corticosteroid agent; for Potency: relative potency of injectable corticosteroid agent

Question: For CC(=O)OCC(=O)[C@@]1(O)CC[C@H]2[C@@H]3C[C@H](C)C4=CC(=O)C=C[C@]4(C)[C@H]3[C@@H](O)C[C@@]21C [Methylprednisolone acetate], which Duration is on record?
Answer: Inter-

Question: And the Potency?
Answer: Inter-

Question: Which Duration does the source give for CC1(C)O[C@@H]2C[C@H]3[C@@H]4CCC5=CC(=O)C=C[C@]5(C)[C@@]4(F)[C@@H](O)C[C@]3(C)[C@]2(C(=O)CO)O1 [triamcinolone acetonide] here?
Answer: Inter-

Question: What about the Potency of the same compound?
Answer: Inter-
